For assay [1], the target named is T1, COL6A2 (α2 chain of collagen VI) (human (endogenous in OSRC-2)) (UniProt P12110).
T1 sequence: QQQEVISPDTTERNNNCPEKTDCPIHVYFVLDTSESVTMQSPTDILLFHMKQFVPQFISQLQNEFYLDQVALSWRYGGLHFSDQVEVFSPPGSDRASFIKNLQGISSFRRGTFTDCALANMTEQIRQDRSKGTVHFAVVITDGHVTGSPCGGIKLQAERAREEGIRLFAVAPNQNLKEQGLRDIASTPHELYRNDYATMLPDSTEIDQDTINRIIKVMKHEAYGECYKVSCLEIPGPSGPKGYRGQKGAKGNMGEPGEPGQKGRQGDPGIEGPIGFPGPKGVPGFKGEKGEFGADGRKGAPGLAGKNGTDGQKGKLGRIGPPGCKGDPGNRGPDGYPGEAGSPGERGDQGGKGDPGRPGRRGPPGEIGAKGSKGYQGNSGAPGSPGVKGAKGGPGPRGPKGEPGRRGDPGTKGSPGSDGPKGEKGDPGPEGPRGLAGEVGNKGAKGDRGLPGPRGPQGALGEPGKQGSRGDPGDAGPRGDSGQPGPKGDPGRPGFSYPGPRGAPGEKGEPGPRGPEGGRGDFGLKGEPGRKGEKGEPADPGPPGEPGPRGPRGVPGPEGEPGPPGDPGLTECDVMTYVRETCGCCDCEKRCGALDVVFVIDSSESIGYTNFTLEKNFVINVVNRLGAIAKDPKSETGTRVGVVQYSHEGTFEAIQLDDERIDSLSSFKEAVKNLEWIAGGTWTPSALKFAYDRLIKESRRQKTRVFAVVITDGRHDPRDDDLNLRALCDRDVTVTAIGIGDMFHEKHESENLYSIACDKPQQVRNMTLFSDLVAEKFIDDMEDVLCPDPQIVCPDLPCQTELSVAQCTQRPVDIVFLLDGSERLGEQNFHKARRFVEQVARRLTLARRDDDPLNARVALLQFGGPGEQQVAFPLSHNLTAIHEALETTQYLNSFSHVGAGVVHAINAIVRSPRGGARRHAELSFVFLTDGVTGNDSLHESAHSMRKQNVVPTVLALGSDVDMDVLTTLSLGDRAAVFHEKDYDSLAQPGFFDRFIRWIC
Put plainly: co-IP; reciprocal co-IP of endogenous proteins from OSRC-2 lysate (IP lysis buffer, pre-cleared with Protein A/G magnetic beads); anti-COL6A2 or anti-integrin β1 antibody or normal rabbit IgG overnight at 4 °C, beads 4 h, three washes, Western blot. A general note: A western blot detects proteins with antibodies after separation by electrophoresis.

Amino acid sequences for entries named in this document (tags omitted). A change or cut given only in a name is not applied to a line headed by its entry.
UniProt P05556: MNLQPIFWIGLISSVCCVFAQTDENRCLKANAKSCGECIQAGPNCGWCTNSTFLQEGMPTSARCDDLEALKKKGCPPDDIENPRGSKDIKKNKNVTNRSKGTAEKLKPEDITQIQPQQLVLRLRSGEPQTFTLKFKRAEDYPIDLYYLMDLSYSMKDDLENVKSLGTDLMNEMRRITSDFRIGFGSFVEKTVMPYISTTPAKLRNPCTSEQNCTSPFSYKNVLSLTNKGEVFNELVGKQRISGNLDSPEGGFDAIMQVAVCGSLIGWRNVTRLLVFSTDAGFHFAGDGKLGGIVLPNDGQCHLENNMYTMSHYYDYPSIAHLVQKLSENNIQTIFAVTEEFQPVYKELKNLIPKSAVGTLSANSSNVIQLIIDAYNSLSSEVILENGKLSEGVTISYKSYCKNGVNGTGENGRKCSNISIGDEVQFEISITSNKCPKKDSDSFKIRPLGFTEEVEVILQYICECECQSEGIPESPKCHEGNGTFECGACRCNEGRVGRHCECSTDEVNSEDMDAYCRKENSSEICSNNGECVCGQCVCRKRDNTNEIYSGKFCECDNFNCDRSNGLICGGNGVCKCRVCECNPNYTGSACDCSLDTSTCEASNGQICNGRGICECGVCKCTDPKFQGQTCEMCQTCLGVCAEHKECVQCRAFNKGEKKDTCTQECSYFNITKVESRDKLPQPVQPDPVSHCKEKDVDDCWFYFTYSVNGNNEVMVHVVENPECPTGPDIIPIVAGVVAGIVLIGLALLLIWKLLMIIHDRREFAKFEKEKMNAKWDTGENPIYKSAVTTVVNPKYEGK

Assay [2] concerns the target integrin β1 (human (endogenous in OSRC-2)) (UniProt P05556). The assay is described as above.

Results are given in words; binding and its absence hold for the method and conditions named. Binding seen in cells or lysates may run through a third protein. Some entries that bind do so weakly or less than the wild type.

As for “integrin β1 (from UniProt P05556 21-798) (receptor)”, the binding entry in assay [1] is on record as “binds”.

B1: COL6A2 (α2 chain of collagen VI) (protein, UniProt P12110 21-1019)
chain: QQQEVISPDTTERNNNCPEKTDCPIHVYFVLDTSESVTMQSPTDILLFHMKQFVPQFISQLQNEFYLDQVALSWRYGGLHFSDQVEVFSPPGSDRASFIKNLQGISSFRRGTFTDCALANMTEQIRQDRSKGTVHFAVVITDGHVTGSPCGGIKLQAERAREEGIRLFAVAPNQNLKEQGLRDIASTPHELYRNDYATMLPDSTEIDQDTINRIIKVMKHEAYGECYKVSCLEIPGPSGPKGYRGQKGAKGNMGEPGEPGQKGRQGDPGIEGPIGFPGPKGVPGFKGEKGEFGADGRKGAPGLAGKNGTDGQKGKLGRIGPPGCKGDPGNRGPDGYPGEAGSPGERGDQGGKGDPGRPGRRGPPGEIGAKGSKGYQGNSGAPGSPGVKGAKGGPGPRGPKGEPGRRGDPGTKGSPGSDGPKGEKGDPGPEGPRGLAGEVGNKGAKGDRGLPGPRGPQGALGEPGKQGSRGDPGDAGPRGDSGQPGPKGDPGRPGFSYPGPRGAPGEKGEPGPRGPEGGRGDFGLKGEPGRKGEKGEPADPGPPGEPGPRGPRGVPGPEGEPGPPGDPGLTECDVMTYVRETCGCCDCEKRCGALDVVFVIDSSESIGYTNFTLEKNFVINVVNRLGAIAKDPKSETGTRVGVVQYSHEGTFEAIQLDDERIDSLSSFKEAVKNLEWIAGGTWTPSALKFAYDRLIKESRRQKTRVFAVVITDGRHDPRDDDLNLRALCDRDVTVTAIGIGDMFHEKHESENLYSIACDKPQQVRNMTLFSDLVAEKFIDDMEDVLCPDPQIVCPDLPCQTELSVAQCTQRPVDIVFLLDGSERLGEQNFHKARRFVEQVARRLTLARRDDDPLNARVALLQFGGPGEQQVAFPLSHNLTAIHEALETTQYLNSFSHVGAGVVHAINAIVRSPRGGARRHAELSFVFLTDGVTGNDSLHESAHSMRKQNVVPTVLALGSDVDMDVLTTLSLGDRAAVFHEKDYDSLAQPGFFDRFIRWIC
In the case of B1, the binding result in assay [2] is “binds”.

The values above are taken from publication PMC12664722.
